# Laboratory results published in the supplement of paper PMC11348887.
# Structures can show the parent of a compound that is named as a salt. This is one part of the list. Small differences around the control level are noise.
# How the values were obtained:
# Settings in all cases: 5 µM; treatment: days 7-14 after plating, readout day 21
# [1] = tested on: hPSC-derived cortical neurons (WA09); experiment: nucleus area z-score vs screen plate; higher = larger nuclei (more mature)
# [2] = tested on: hPSC-derived cortical neurons (WA09); experiment: total neurite length per nucleus (MAP2) z-score; higher = more neurite growth
# [3] = tested on: hPSC-derived cortical neurons (WA09); experiment: nucleus roundness z-score vs screen plate; higher = rounder nuclei (more mature)
# [4] = tested on: hPSC-derived cortical neurons (WA09); experiment: KCl-induced FOS+/EGR-1+ double-positive nuclei fraction z-score (KCl minus unstimulated); higher = stronger activity-induced IEG response
Structure (SMILES),nucleus area z-score [1],total neurite length per nucleus (z-score) [2],nucleus roundness z-score [3],KCl-induced FOS+/EGR-1+ double-positive nuclei fraction z-score [4]
CCn1cc(C(=O)O)c(=O)c2cc(F)c(N3CCN(C)CC3)cc21 [Pefloxacin Mesylate Dihydrate],1,0.05,-0.66,0.0646
O=C(NC1CCN(CCCCC2(C(=O)NCC(F)(F)F)c3ccccc3-c3ccccc32)CC1)c1ccccc1-c1ccc(C(F)(F)F)cc1 [Lomitapide Mesylate],-12.1,-4.31,-4.72,-0.336
CCOC(=O)[C@H]1O[C@@H]1C(=O)N[C@@H](CC(C)C)C(=O)NCCC(C)C [Aloxistatin],-0.458,0.56,1.01,-0.203
C[C@H](CCC(=O)O)[C@H]1CC[C@H]2[C@@H]3CC[C@@H]4C[C@H](O)CC[C@]4(C)[C@H]3C[C@H](O)[C@]12C [Deoxycholic acid],0.374,-0.161,0.133,0.127
CC(=O)[C@H]1CC[C@H]2[C@@H]3CCC4=CC(=O)CC[C@]4(C)[C@H]3CC[C@]12C [Progesterone],-0.763,-0.593,-1.15,-1.11
O=C(O)c1cc(=O)[nH]c(=O)[nH]1 [Orotic acid (6-Carboxyuracil)],1.4,0.21,0.309,1.17
CC(=O)O[C@]1(C(C)=O)CC[C@H]2[C@@H]3C[C@H](C)C4=CC(=O)CC[C@]4(C)[C@H]3CC[C@@]21C [Medroxyprogesterone acetate],0.597,0.574,-0.575,0.149
OCCOCCN1CCN(C(c2ccccc2)c2ccc(Cl)cc2)CC1 (stereo unspecified) [Hydroxyzine 2HCl],-0.782,-1.12,0.048,0.167
C#C[C@]1(O)CC[C@H]2[C@@H]3CCC4=CC(=O)CC[C@@H]4[C@H]3CC[C@@]21CC [Levonorgestrel],0.586,-1.53,-0.348,-0.813
O=C(c1ccc(Cl)cc1)N(Cc1ccccc1)C1CCCCC1,0.32,0.234,0.372,0.959
CCNC1(C(N)=O)CCN(c2ncnc3c2nc(-c2ccccc2Cl)n3-c2ccc(Cl)cc2)CC1,-0.389,0.0146,-0.0882,0.0724
CC(C)(C)C(=O)Nc1ccc2c(c1)C(=O)C(=O)c1ccccc1-2,0.677,0.0216,1.19,0.322
COc1cc2c(Oc3ccc4[nH]c(C)cc4c3F)ncnc2cc1OCCCN1CCCC1 [Cediranib (AZD2171)],-2.3,-1.03,-0.338,-0.307
CC(C)[C@H](CO)Nc1nc(Nc2cccc(Cl)c2)c2ncn(C(C)C)c2n1 [Purvalanol A],-0.255,0.669,-0.149,1.35
Nc1ccn([C@H]2CC[C@@H](CO)O2)c(=O)n1 [Zalcitabine],0.636,-0.5,-0.443,-0.83
COc1cc(Nc2ncc(F)c(Nc3ccc4c(n3)N(COP(=O)(O)O)C(=O)C(C)(C)O4)n2)cc(OC)c1OC [R788 (Fostamatinib) Disodium],-0.418,-0.0747,-2.07,-0.252
CC(=O)Nc1ccc(NC(=S)NC(=O)c2ccc(C(C)(C)C)cc2)cc1 [Tenovin-1],0.26,1.11,1,0.25
Cc1ccsc1C(=CCCN1CCC[C@@H](C(=O)O)C1)c1sccc1C [Tiagabine],0.143,0.532,0.294,1.07
"CNC(=O)[C@H](Cc1c[nH]c2ccccc12)NC(=O)[C@@H](CC(=O)NO)CC(C)C [Ilomastat (GM6001, Galardin)]",-0.757,-0.92,0.099,0.904
Clc1ccc2c(c1)CCc1cccnc1C2=C1CCNCC1 [Desloratadine],-0.234,0.393,0.778,0.335
Cc1cc(-c2ncc(CC(=O)Nc3ccc(-c4cnccn4)cn3)cc2C)ccn1,0.239,-0.467,-0.493,-0.435
O=C(/C=C/c1ccc(O)c(O)c1)c1ccc(O)cc1O [Butein],-1.89,-0.398,3.01,-2.19
NC[C@H]1O[C@H](O[C@H]2[C@H](O)[C@@H](O[C@H]3O[C@H](CO)[C@@H](O)[C@H](N)[C@H]3O)[C@H](N)C[C@@H]2N)[C@H](N)C[C@@H]1O [Tobramycin],0.275,-0.496,-0.754,-0.0486
CN(C)C/C=C/C(=O)Nc1cc2c(Nc3ccc(F)c(Cl)c3)ncnc2cc1O[C@H]1CCOC1 [Afatinib (BIBW2992) Dimaleate],-14.5,-5.56,-4.42,-1.43

# A section taken from the entries so far:
Structure (SMILES),nucleus area z-score [1],total neurite length per nucleus (z-score) [2],nucleus roundness z-score [3],KCl-induced FOS+/EGR-1+ double-positive nuclei fraction z-score [4]
O=C(NC1CCN(CCCCC2(C(=O)NCC(F)(F)F)c3ccccc3-c3ccccc32)CC1)c1ccccc1-c1ccc(C(F)(F)F)cc1 [Lomitapide Mesylate],-12.1,-4.31,-4.72,-0.336
CCOC(=O)[C@H]1O[C@@H]1C(=O)N[C@@H](CC(C)C)C(=O)NCCC(C)C [Aloxistatin],-0.458,0.56,1.01,-0.203
